These are yes or no findings as the source states them, for the method shown. Some binding calls cover weakened binding; strength is not graded here.

Protein sequences, listed by entry. Tags and fused reporters are not part of them. Residues count along the entry.
UniProt P13500, residues 24-99: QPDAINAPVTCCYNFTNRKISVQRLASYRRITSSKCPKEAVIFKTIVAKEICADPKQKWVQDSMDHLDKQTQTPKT
UniProt P10147, residues 27-92: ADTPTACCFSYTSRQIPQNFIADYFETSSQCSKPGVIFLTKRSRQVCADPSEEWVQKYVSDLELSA

First the molecules themselves.
T1: recombinant human CXCL11/I-TAC (human) (UniProt O14625)
T1 sequence (biotinylated in the ELISA; 125I label in the radioligand assays, looked up): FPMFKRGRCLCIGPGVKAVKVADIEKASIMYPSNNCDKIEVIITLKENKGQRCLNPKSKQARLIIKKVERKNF

B1: Nanobody 8C10 (VHH, not shown: small tags and cut ends)
VHH: EVQLVESGGGLVQAGGSLRLSCAASGRSFSSHRMGWFRQAPGKEREFVASISRSGENTYYADSVKGRFTISRDNAKNTVYLQMNSLKSEDTAVYYCAASGGMGISAPNSYAYWGQGTQVTVSS
B2: Nanobody 9D1 (VHH, not shown: small tags and cut ends)
VHH: EVQLVESGGGLVQAGGSLRLSCVASGRTFSSSNMGWFRQAPGKEREFVAAITWSGGWRYYGDSVKGRFTIFRDDAKNTVFLQMNSLKPEDTAVYYCAVVSSGVSGFSNRYDYWGQGTQVTVSS
B3: Nanobody 9c2 (VHH, not shown: small tags and cut ends)
VHH: EVQLVESGGGLVQAGGSLRLSCAASGFPFDDYAIGFFRRAPGKEREGVSCLSRSDGSIYSVPSVKGRFTISKDHAKNTVYLQMNNLKPEDTAVYYCAAGDWVRDPCTWYPNDFDSWGQGTQVTVSS
B4: Nanobody 9B8 (VHH, not shown: small tags and cut ends)
VHH: EVQLVESGGGLVQPGGSLRLSCVASGINFSRYGLGWYRQVPGGQRELVASITSGGSTNYAESVKGRFTISRDNFKNTVYLQMDNLKPEDTAVYYCSAIGWRYWGQGTQVTVSS
B5: Nanobody 9H1 (VHH, not shown: small tags and cut ends)
VHH: EVQLVESGGGLVQAGGSLRLSCAVSGRTFNSRPMGWFRQAPGNDREFVAAMRWSSSSTDYADSVKGRFTMSRDNAKNTVFLQMNSLKPEDTAVYYCAAGPSGGIYYKSPGDYDYWGRGTQVTVSS
B6: Nanobody 9A8 (VHH, not shown: small tags and cut ends)
VHH: EVQLVESGGGLVQPGGSLRLSCAASGSIFINSMGWYRQAPGNEREFVARISSGGSTNYEDSVKGRFTISQDNAKNTVYLQMDSLKPEDTASYVCYAIGGGAVHWGQGTQVTVSS
B7: Nanobody 9A2 (VHH, not shown: small tags and cut ends)
VHH: EVQLVESGGALVQPGGSLRLSCAASGFTFDDYAMSWVRQAPGKGLEWVSAISWNAGTTYYAESIQGRFTISRDNAKNTLYLQMNSLKPEDTAVYYCVQDRLYGSNWSDLLDEYDYWGQGTQVTVSS
B8: Nanobody 9G2 (VHH, not shown: small tags and cut ends)
VHH: EVQLVESGGGLVQAGGSLRLSCAASGFTFDDYAIGWFRQAPGKEREGVSCISPSDGSTYYADSVKGRFTISSDNAKNTVYLQMNSLKPEDTAVYYCAALYSDYDCPHPSIPHEYDYWGQGTQVTVSS
B9: Nanobody 9H8 (VHH, not shown: small tags and cut ends)
VHH: EVQLVESGGGLVQAGGSLRLSCAASGIITSRYAMHWYRQAPGEQRELVAGITSGGSTSYADSVKGRFTISRDNAKNTVYLQMNGLKPEDTAVYYCKVLGFDRWGQGTQVTVSS
B10: Nanobody 9C7 (VHH, not shown: small tags and cut ends)
VHH: EVQLVESGGGLVQPGGSLRLSCAASGIITSRYLMRWYRQAPGEQRELVADITSGGSTNYRDSVKGRFTISRDNAKNTVYLQMNSLKPEDTAVYYCKALGFDRWGQGTQVTVSS
B11: Nanobody 9D7 (VHH, not shown: small tags and cut ends)
VHH: EVQLVESGGGLVQPGGSLRLSCAASGFAFSTNAMSWVRQAPGKGLEWISTINSGGWRSYADSVKGRFTISRDDGQNTLYLQMNSLKPEDTAVYYCVHQNYRGQGTQVTVSS
B12: Nanobody 9F1 (VHH, not shown: small tags and cut ends)
VHH: EVQLVESGGGLVQAGGSLRLSCAASERTYGMGWFRQAPGKERVFVAAINYSGRSINYSDSVKGRFTISRDNAKNTVYLQMNSLKVEDTAIYYCAADKTLWSISSDRDEYDYWGQGTQVTVSS
B13: Nanobody 9F2 (VHH, not shown: small tags and cut ends)
VHH: EVQLVESGGGLVQAGGSLRLSCAASERTYGMGWFRQAPGKERVFVAAINYSGRSINYSDSVKGRFIISRDNAKNTVYLQMNSLKVEDTAIYYCAADKTLWSISSDRDEYDYWGQGTQVTVSS
B14: Nanobody 9E1 (VHH, not shown: small tags and cut ends)
VHH: EVQLVESGGGLVQAGDSLRLACAASGGTFSNYAMGWFRQAPGKEREFVGALRWITRITYYADSVKGRFTISKDNAKNTVYLQMNSLKPEDTAVYYCAAGSPSRLVNMNQYNYWGQGTQVTVSS
B15: Nanobody 9E2 (VHH, not shown: small tags and cut ends)
VHH: EVQLVESGGGLVQPGGSLRLSCAASGFTFSSSSMYWVRQAPGKGLEWVSTINMIGFRSYADSVKGRFTIFRDDAKNTLYLQMNNLKPEDTALYYCARDRGGDVRGQGTQVTVSS
B16: Nanobody 9C8 (VHH, not shown: small tags and cut ends)
VHH: EVQLVESGGGLLTTGGSLRLSCTASESIFSGNNMGWFRQAPGKQREWVATVTDGGWRNYAESVKGRFTISRDNAKNTVYLQMNSLKPEDTAVYYCNRVAGWAGPLGSWGQGTQVTVSS
B17: Nanobody 9H2 (VHH, not shown: small tags and cut ends)
VHH: EVQLVESGGGLVQAGGSLRLSCAASGRTFSSYAMGWFRQAPGKEREFVAAISWSAGSTYYADPVKDRFTISRDNAKNTVYLQMNSLKPEDTAVYYCAAAQFRQVGPYWSDYDVPYEYDYWGQGTQVTVSS
B18: Nanobody 9G7 (VHH, not shown: small tags and cut ends)
VHH: EVQLVESGGGLVQPGGSLRLSCAPSGSILQFNIMGWYRQAPGKQRELVAAITKLGFRNYLDSVKGRFTISTDSAKNTMSLQMNSLKPEDTAVYYCNEVGPGWAPILFDSWGQGTQVTVSS
B19: Nanobody 11A4 (VHH, not shown: small tags and cut ends)
VHH: EVQLVESGGGLVQAGGSLRLSCAASGFTLDDYAIGWFRQAPGKEREGISLITSDDGSTYYADSVKGRFTISSDNAKNTVYLQMNSLKPEDTAVYYCAAAQGLLLLSLWVPTQYDYWGQGTQVTVSS
B20: Nanobody 11D7 (VHH, not shown: small tags and cut ends)
VHH: EVQLVESGGGLVQAGGSLRLSCATSGFTFDDYAIGWFRQAPGKEREGVSILSSSDGSTYYADSVKGRFTISSDNAKNTVYLQMNSLKPEDTAVYYCAAGQGWVIATMTSFRAHREYDYWGQGTQVTVSS

The first assay addresses recombinant human CCL2/MCP1 (human) (UniProt P13500). The assay is described as follows: ELISA, periplasmic extract on coated CCL2, anti-myc detection. A general note: In an ELISA, binding on a coated surface is turned into a signal by an enzyme label.
For B1, the binding entry is “binds”.

The next assay has as its target recombinant human CCL3/MIP1 alpha (human) (UniProt P10147). Kind of assay: ELISA, periplasmic extract on biotinylated CCL3 on neutravidin, anti-myc detection.
Take B2: the binding entry is given as “binds”.
Same read-out and setting: the value for B3 was “binds”; that for B4 was “binds”; that for B5 was “binds”.
The same measure, in the same setting: the value for B6 was “binds”; that for B7 was “binds”; that for B8 was “binds”.
Take B9: the binding result is on record as “binds”.
The same measure, in the same setting: the value for B10 was “binds”.
On the same count and under the same terms, the value for B11 was “binds”; that for B12 was “binds”; that for B13 was “binds”.
Consider B14, for which the binding result is given as “binds”.
On to B15, for which the binding result was “binds”.
For the molecule B16, the binding entry is “binds”.
The same measure, in the same setting: the value for B17 was “binds”; that for B18 was “binds”.

The target of a further assay is T1, recombinant human CXCL11/I-TAC (human). The assay is described as follows: inhibition of 125I-CXCL11 binding to hCXCR3 (HEK293T cells), 10x diluted periplasm.
B19: the binding entry is “binds”.

For another assay the target is unchanged. Kind of assay: ELISA, Nanobody captured by coated anti-myc antibody, biotinylated CXCL11, streptavidin-HRP.
Turning to B20, the binding entry is listed as “binds”.
Turning to B19, the binding entry is on record as “binds”.

The target is the same in another assay. Kind of assay: inhibition of 125I-CXCL11 binding to hCXCR3 (HEK293T cells), 10x diluted periplasm; ELISA grade at the label.
On to B20, for which the binding entry is given as “binds”.
Still for that read-out and setting: the value for B19 was “binds”.

These data come from patent publication US20100092460A1.
